From PubChem BioAssay AID588497 (NMMLSC, 2011)
The whole screen tested about 360,000 compounds, of which about 780 (0.22%) were called active. The inconclusive results got no clear call from the source; some entries with a clear call stand among them for comparison. Cut-off read from the data, not from the text of the source: active = inhibition above about 35% (passing the limit was not always enough); inconclusive = no clear call, values can overlap the other calls.

System: Botulinum neurotoxin type F light chain protease (Clostridium botulinum)
Assay: BoNT/F light chain protease inhibitors, primary screen, biochemical, flow cytometry, MLPCN library (AID 588497); note: plate controls were buffer without enzyme for full effect and enzyme alone for no effect
Details: Multiplex microsphere protease cleavage assay, at 10 µM, stronger effect = higher value

SMILES	inhibition
O=C(Oc1ccccc1)c1cccnc1Oc1ccccc1	inconclusive: -10.3%
COc1ccccc1NC(=O)C(=O)Nc1ccc2c(c1)N(C(=O)C1CC1)CCC2	inconclusive: -114%
COc1ccc(CC(=O)NCC2CCCN(Cc3ccc(F)c(OC)c3)C2)cc1 (configuration not stated)	inconclusive: 26.2%
COc1cccc(CN2CCNC(=O)C2CC(=O)N(C)C2CCOCC2)c1OC (configuration not stated)	inactive: 8.4%
COc1ccc(C(=O)N2CCN(Cc3ccccc3)CC2)cc1[N+](=O)[O-]	inconclusive: 27.5%
CCN1C(=O)/C(=C/C=C2/Sc3ccc4ccccc4c3N2CCO)SC1=S	active: 36.3%
Cc1nc(N2CCN(c3ccc(Cl)cc3)CC2)[nH]c(=O)c1C	inconclusive: -1.2%
O=C1NC(=O)N(c2ccc(F)cc2)C(=O)/C1=C/c1ccc(N2CCOCC2)cc1	inactive: -0.8%
Oc1ccc(C[C@H]2CN([C@@H](Cc3ccc(O)cc3)CN3CCC[C@@H]3CN3C(=S)NC[C@@H]3Cc3ccccc3)C(=S)N2CC2CCCCCC2)cc1	inactive: -3.4%
CC1=NN(C(N)=S)C(=O)C1N=Nc1ccccc1C(=O)O (configuration not stated)	inconclusive: 14.8%
COc1ccc(CC2(CO)COc3ccccc3C2=O)cc1 (configuration not stated)	inactive: -3.7%
O=[N+]([O-])c1ccc(Nc2ccc(F)cc2)cc1	inconclusive: -39.4%
C/C(=N/NC(=O)c1cnccn1)c1ccncc1	inactive: -6.5%
N#C/C(=C\c1ccc(N2CCOCC2)c([N+](=O)[O-])c1)c1nc2ccccc2[nH]1	inactive: -11.1%
COc1ccc(/C=C(\C)C(=O)c2c(C)cc(C)[nH]c2=O)cc1	inconclusive: -41.5%
CCCc1cc(=O)n2[nH]c(Cc3ccccc3)nc2n1	inconclusive: 29.2%
O=C(NCCCn1ccnc1)c1ccccc1F	inconclusive: 85.6%
Cc1ccc(CNc2c(C=O)c(=O)[nH]c3ccccc23)cc1	inconclusive: 13.7%
Cc1ccc(/C=C2\CCC3=C2OC(N)=C(C#N)C3c2ccc(C)cc2)cc1 (configuration not stated)	active: 41.5%
Cc1nc2sc(C(c3ccc(Cl)cc3)N3CCOCC3)c(O)n2n1 (configuration not stated)	inconclusive: 30.7%
CCCN(CCC)C(=S)NC1CC2C=CC1C2 (configuration not stated)	inconclusive: -7.6%
CCn1c(SCc2ccc(C(=O)O)cc2)nnc1-c1ccc(Cl)cc1	inconclusive: -9.3%
CCn1c(SCC(=O)Nc2ccccc2)nnc1-c1ccc(S(=O)(=O)N2CCOCC2)cc1	inactive: 0.2%

SMILES	inhibition
FC(F)Sc1ccc(NC(=S)NC2CCCCC2)cc1	inactive: -2.6%
Cc1ccc(-c2noc(CCC(=O)Nc3cccc(C#N)c3)n2)cc1	inconclusive: -51.1%
O=C1CCC(=O)N1CC(O)COc1ccccc1 (configuration not stated)	inconclusive: -3.2%
Cc1ccc2cccc(OCc3ccccc3)c2n1	inconclusive: -12.1%
CCCCCN=C(N)N/N=C/c1c[nH]c2ccc(OC)cc12	inactive: -42.5%
COc1ccc(NCc2nnc(SCc3ccc(Cl)cc3)n2-c2ccccc2)cc1	inactive: -13.2%
OC(C#CCCN1CCCCC1)(c1ccccc1)C1CCCCC1 (configuration not stated)	inconclusive: 137%
CCOC(=O)c1cccc(Nc2nc(-c3cccnc3)nc3ccccc23)c1	inconclusive: 41.2%
Cc1noc(C)c1COc1ccccc1C(=O)NC1CCC(C)CC1 (configuration not stated)	inactive: -0.5%
CCCn1nnnc1NCc1ccc(SC)cc1	inconclusive: 24.1%
CC(=O)N1CCN(c2ccc(NC(=O)c3ccccc3)cc2)CC1	inconclusive: -18.4%
COc1ccc(-c2ccc(/C=C3/C(=N)N4C(C)=CSC4=NC3=O)o2)c([N+](=O)[O-])c1	inactive: -3.9%
Cc1ccccc1CN1C(=O)C(C)S/C1=N/N=C/c1ccco1 (configuration not stated)	inconclusive: -71.9%
Cc1nc(Nc2ccc(Cl)cc2)c(C#N)c(=O)[nH]1	inconclusive: 1%
CCOC(=O)CSc1nc2c(sc(=S)n2Cc2ccco2)c(=O)n1-c1ccc(F)cc1	inactive: -4.9%
O=S(=O)(c1ccc(C(F)(F)F)cc1)N1CCCN(c2ccc(C(F)(F)F)cn2)CC1	inconclusive: 1.2%
Cc1ccc(Nc2nc(C)cc(C)n2)c(Br)c1	active: 35.1%
O=C(COC(=O)c1nc(Cl)ccc1Cl)c1ccccc1Cl	inconclusive: 12.8%
Cn1cccc1CC(=O)N/N=C/c1ccc(C(C)(C)C)cc1	inconclusive: 31.1%
O=S(=O)(Nc1ccc2c(c1)nc1n2CCOC1)c1ccc(Cl)cc1	inactive: 2.5%
CC(=NNC(=S)N1CCN(C2CCCCCC2)CC1)c1ccccn1	active: 74.5%
CCOC(=O)N1CCN(C(=O)c2ccc(C)c(S(=O)(=O)Nc3ccccc3)c2)CC1	active: 34.5%
Cc1ccc(N/N=C/c2ccncc2)cc1	inconclusive: -47.6%

SMILES	inhibition
c1csc(C2Nc3ccccc3-c3nc4ccccc4n32)c1 (configuration not stated)	inactive: -14.5%
CN(Cc1ccccc1)c1nc2c(c(=O)[nH]c(=O)n2C)n1Cc1ccccc1F	inconclusive: 30.6%
COc1ccc(CCNC(=O)c2oc3ccccc3c2C)cc1	inconclusive: 2%
COc1ccccc1CNC(=O)CNCCc1ccc(OC)c(OC)c1	inconclusive: -28.7%
O=C(COc1ccccc1Cl)N1CCCCCCC1	inconclusive: -4.9%
COC(=O)C1=C(c2ccccc2)C[C@@H]2CC[C@H]1N2C(=O)NCCO	inactive: 4.4%
Cc1noc(C)c1C(=O)N1CCC(C(=O)c2ccccc2)CC1	inconclusive: 40.8%
CCCCn1c(-c2ccco2)nc2oc3ccccc3c(=O)c2c1=O	inconclusive: -99.4%
Cc1cc(C)c2c(=O)n3c(nc2c1)C(Cc1ccc(O)cc1)NC(=O)c1cc2ccccc2cc1-3 (configuration not stated)	inactive: -0.5%
Cc1ccc(S(=O)(=O)N(C)C)cc1NC(=O)COC(=O)CNC(=O)C12CC3CC(CC(C3)C1)C2	inconclusive: 5.2%
CCCCN1C(=O)C(CC(=O)NC2CCCC2)CC(C(=O)N(C(C)C)C(C)C)=C1C (configuration not stated)	inactive: -2.5%
CN(CC(=O)Nc1ccccc1Cl)C(=O)CSC(=S)N1CCCC1	inconclusive: 4.6%
O=C(C(Cl)Cl)N1CCN(Cc2ccc3c(c2)OCO3)CC1	inconclusive: 7.9%
CC1=C(C(=O)OCc2ccccc2)C(c2ccc([N+](=O)[O-])cc2)NC(=O)N1CCCC(=O)O (configuration not stated)	inactive: 7.9%
CN(C)c1ccc(NC(=O)CCn2c(=S)oc3ccccc32)cc1	inactive: -57.3%
Cc1[nH]n(-c2ccccc2)c(=O)c1-c1cccc(Cl)c1	inconclusive: 24.3%
Cc1ccc(C(=O)OCC(=O)Nc2sc3c(c2C#N)CCCCC3)cc1NC(=O)c1ccco1	inconclusive: -3.9%
CCOC(=O)COc1nc(-c2ccccc2)cc(-c2ccco2)c1C#N	inconclusive: -23.1%
CCS(=O)(=O)N1CCC(N2CCC(C)CC2)CC1	inactive: -0.3%
O=C1c2cccc3cccc(c23)C(=O)N1Cc1cccnc1	inconclusive: -25%
Cc1ccc(CN2CCN(CC(=O)N/N=C/c3ccccc3F)CC2)cc1	inconclusive: -152%
COc1ccccc1-n1c(SCC(=O)Nc2ccc(Br)cc2)nc(O)cc1=O	inconclusive: -11.7%
Cn1nc(C(F)(F)F)c(-c2ccc(Br)cc2)c1NC(=O)CSCC(=O)O	inconclusive: 40.7%

22 of the compounds above, comma-delimited.
SMILES,inhibition
Cc1ccc(N/N=C/c2ccncc2)cc1,inconclusive: -47.6%
c1csc(C2Nc3ccccc3-c3nc4ccccc4n32)c1 (configuration not stated),inactive: -14.5%
CN(Cc1ccccc1)c1nc2c(c(=O)[nH]c(=O)n2C)n1Cc1ccccc1F,inconclusive: 30.6%
COc1ccc(CCNC(=O)c2oc3ccccc3c2C)cc1,inconclusive: 2%
COc1ccccc1CNC(=O)CNCCc1ccc(OC)c(OC)c1,inconclusive: -28.7%
O=C(COc1ccccc1Cl)N1CCCCCCC1,inconclusive: -4.9%
COC(=O)C1=C(c2ccccc2)C[C@@H]2CC[C@H]1N2C(=O)NCCO,inactive: 4.4%
Cc1noc(C)c1C(=O)N1CCC(C(=O)c2ccccc2)CC1,inconclusive: 40.8%
CCCCn1c(-c2ccco2)nc2oc3ccccc3c(=O)c2c1=O,inconclusive: -99.4%
Cc1cc(C)c2c(=O)n3c(nc2c1)C(Cc1ccc(O)cc1)NC(=O)c1cc2ccccc2cc1-3 (configuration not stated),inactive: -0.5%
Cc1ccc(S(=O)(=O)N(C)C)cc1NC(=O)COC(=O)CNC(=O)C12CC3CC(CC(C3)C1)C2,inconclusive: 5.2%
CCCCN1C(=O)C(CC(=O)NC2CCCC2)CC(C(=O)N(C(C)C)C(C)C)=C1C (configuration not stated),inactive: -2.5%
CN(CC(=O)Nc1ccccc1Cl)C(=O)CSC(=S)N1CCCC1,inconclusive: 4.6%
O=C(C(Cl)Cl)N1CCN(Cc2ccc3c(c2)OCO3)CC1,inconclusive: 7.9%
CC1=C(C(=O)OCc2ccccc2)C(c2ccc([N+](=O)[O-])cc2)NC(=O)N1CCCC(=O)O (configuration not stated),inactive: 7.9%
CN(C)c1ccc(NC(=O)CCn2c(=S)oc3ccccc32)cc1,inactive: -57.3%
Cc1[nH]n(-c2ccccc2)c(=O)c1-c1cccc(Cl)c1,inconclusive: 24.3%
Cc1ccc(C(=O)OCC(=O)Nc2sc3c(c2C#N)CCCCC3)cc1NC(=O)c1ccco1,inconclusive: -3.9%
CCOC(=O)COc1nc(-c2ccccc2)cc(-c2ccco2)c1C#N,inconclusive: -23.1%
CCS(=O)(=O)N1CCC(N2CCC(C)CC2)CC1,inactive: -0.3%
O=C1c2cccc3cccc(c23)C(=O)N1Cc1cccnc1,inconclusive: -25%
Cc1ccc(CN2CCN(CC(=O)N/N=C/c3ccccc3F)CC2)cc1,inconclusive: -152%

(more compounds)

SMILES	inhibition
COc1ccccc1C(=O)Nn1cnnc1	inconclusive: -12.2%
O=[N+]([O-])c1cccnc1Oc1ccc(C2SCCS2)cc1	inconclusive: -36.8%
CCCCCC(=O)NC(=S)NC1C2CC3CC(C2)CC1C3 (configuration not stated)	inconclusive: -10%
CC(C)N(Cc1ccccc1)S(=O)(=O)N(C)C	inconclusive: 6.9%
CN(C)CCn1nnc2c(=O)oc3ccccc3c21	inactive: -5.5%
CC1(C)CN=C(NCc2ccccc2Cl)S1	inconclusive: -35.7%
Nc1nc2ccccc2nc1N1CCCC1	active: 41.5%
COc1ccc(C(=O)NCCNc2nc3ccc(C)cc3cc2C#N)cc1OC	inconclusive: -19.4%
Cc1ccc(NS(=O)(=O)c2ccc(C(=O)NCC(c3ccco3)N(C)C)cc2)cc1 (configuration not stated)	inactive: -0.4%
N#CCC(=O)Nc1ccc(C(=O)OCC(=O)C23CC4CC(CC(C4)C2)C3)cc1	inconclusive: -17.5%
Cc1c(C(=O)Nc2c(C)n(C)n(-c3ccccc3)c2=O)oc2ccccc12	inactive: -3.5%
CCc1ccc(NC(=O)C(=S)NC2CCCCC2)cc1	inactive: -3.8%
CC1(C)CC(NS(=O)(=O)c2ccc(S(=O)(=O)N3CCOCC3)cc2)CCO1 (configuration not stated)	inactive: -0.9%
Cc1nc2c(C(=O)NCCC3=CCCCC3)c[nH]n2c(=O)c1Cl	inactive: 1.5%
COc1cc(NC(=O)c2ccccc2)ccc1NC(=O)Cc1ccccc1	inconclusive: 20.6%
CN=C(C)/C(C(=O)OC)=C(/O)c1c(F)cccc1F	inconclusive: -9.8%
O=C(Nc1ccccc1N1CCCC1)C1CCN(S(=O)(=O)c2ccccc2)CC1	inactive: -15%
CCOc1ccc(NC(=O)CSc2nnc(C3CC3)n2C2CC2)cc1	inactive: 2.1%
Cc1ccc(OCC(=O)NC(C)c2ccccc2)cc1C (configuration not stated)	inconclusive: -20.6%
Cc1cccnc1NC(=O)Nc1ccc(Cl)cc1	inconclusive: -14.4%
Cc1nn(-c2ccccc2)c2c1C1(C(=O)N3c4c(cccc41)C(C)CC3(C)C)C(C#N)=C(N)O2 (configuration not stated)	inactive: 0%
C[C@H](NC(=O)[C@@H]1CCCN1C(=O)OC(C)(C)C)c1ccccc1	inactive: 5.2%
CC(C)CCNC(=O)c1cc(-c2ccco2)nc2ccccc12	inactive: 14.6%
